Laboratory results published in PubChem BioAssay AID720697 (Broad Institute, 2013).
The shares of active, inactive and inconclusive entries below differ from those in the screen. Calls of active or inactive are those of the source.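 The calls were made as follows: active = signal loss with fitted half-maximal concentration at or below twice the top valid tested dose in every test run; inconclusive = runs disagree, flat 30 to 70% signal loss, or poor fit; inactive = all runs flat, opposite direction, or potency beyond limit.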

Experiment: general mammalian cell viability loss – inhibitor set, cherry-pick, set 2, cytotoxicity control for miR-122 modulator project, dose response (AID 720697);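 also: 0% = median of neutral control wells and -100% = MG132 positive control wells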
Conditions: HEK293T viability, CellTiter-Glo luminescence, 48 h; at 26 µM (top of the series) unless noted
With `CCN(C[C@@H]1[C@@H](c2ccccc2)[C@@H](CO)N1S(C)(=O)=O)C(=O)C1CC1` the activity change, negative = cytotoxicity was inactive: 135%. For `CN1C(=O)c2cc(NC(=O)Cc3ccccc3)ccc2OC[C@@H]2O[C@@H](CC(=O)O)CC[C@H]21`, the activity change, negative = cytotoxicity was inconclusive: -29.9% [at 23.5 µM]. With `COC(=O)C[C@@H]1CC[C@@H]2[C@@H](COc3ccc(NC(=O)Nc4cccc(C#N)c4)cc3C(=O)N2C)O1` the activity change, negative = cytotoxicity was inconclusive: -43.3%. For `CCN(C[C@H]1N[C@H](CO)[C@H]1c1ccc(-c2ccc(F)cc2)cc1)C(=O)COC`, the activity change, negative = cytotoxicity was inconclusive: -56.7%. With `CCN(C[C@H]1N[C@H](CO)[C@H]1c1ccc(C2=CCCC2)cc1)C(=O)c1cccnc1` the activity change, negative = cytotoxicity was inactive: 8.01%. In the case of `C[C@@H]1CN([C@@H](C)CO)C(=O)c2cc(C#CC3CCCCC3)cnc2O[C@H]1CN(C)S(=O)(=O)c1cccc(F)c1`, the activity change, negative = cytotoxicity is reported as inconclusive: -156%. For `Cc1cccc(NC(=O)Nc2ccc3c(c2)C(=O)N(C)[C@H]2CC[C@@H](CC(=O)NCc4ccccc4Cl)O[C@H]2CO3)c1`, the activity change, negative = cytotoxicity was inconclusive: -31.8%. With `CCCCN(CCCC)C(=O)CN(C)S(=O)(=O)c1ccc2c(c1)n(C)c(=O)c(=O)n2C` the activity change, negative = cytotoxicity was inactive: 84%. With `CC(=O)N(C)C[C@H]1Oc2cc(C#Cc3ccc(F)cc3)ccc2S(=O)(=O)N([C@H](C)CO)C[C@H]1C` the activity change, negative = cytotoxicity was inconclusive: -52.2%. With `CNC(=O)C[C@@H]1CC[C@@H]2[C@@H](COc3ccc(NC(=O)c4ccccc4F)cc3C(=O)N2C)O1` the activity change, negative = cytotoxicity was inactive: 102% [at 23.5 µM]. In the case of `CCN(C[C@@H]1N[C@H](CO)[C@H]1c1ccc(-c2ccc(F)cc2)cc1)C(=O)COC`, the activity change, negative = cytotoxicity is reported as inconclusive: -72% [at 23.5 µM]. With `C[C@@H]1CN([C@H](C)CO)S(=O)(=O)c2ccc(C3=CCCC3)cc2O[C@@H]1CN(C)C(=O)Cc1ccncc1` the activity change, negative = cytotoxicity was inactive: 139%. In the case of `CC(C)C(=O)Nc1ccc2c(c1)C(=O)N(C)[C@@H]1CC[C@@H](CC(=O)NCCc3ccccc3)O[C@H]1CO2`, the activity change, negative = cytotoxicity is reported as inconclusive: -47.1%. For `O=C(Nc1ccc(F)cc1)N1CCCCN2[C@H](CO)[C@H](c3ccc(C#Cc4ccccc4)cc3)[C@H]2C1`, the activity change, negative = cytotoxicity was inconclusive: 50.2%. With `CCN(C[C@H]1[C@H](c2ccccc2)[C@@H](CO)N1C(=O)C1CC1)C(=O)NC1CCCC1` the activity change, negative = cytotoxicity was inconclusive: -61.4%. In the case of `O=C(CC(O)(C(F)(F)F)C(F)(F)F)Nc1ccc(Cl)c(Cl)c1`, the activity change, negative = cytotoxicity is reported as inconclusive: -93.2%. In the case of `CN1C(=O)c2cc(NC(=O)c3cccc(C(F)(F)F)c3)ccc2OC[C@@H]2O[C@@H](CC(=O)NCCN3CCCC3)CC[C@@H]21`, the activity change, negative = cytotoxicity is reported as inconclusive: -61.7%. In the case of `c1ccc(-n2nnnc2NCCc2c[nH]c3ccccc23)cc1`, the activity change, negative = cytotoxicity is reported as inactive: -23.7%. With `CC(C)(C)c1cc(NCCCn2ccnc2)n2ncc(-c3ccc(Cl)cc3)c2n1` the activity change, negative = cytotoxicity was inactive: 62.2%. In the case of `CC(=O)Nc1ccc2c(c1)C(=O)N(C)[C@@H]1CC[C@@H](CC(=O)NCc3ccc(Cl)cc3)O[C@H]1CO2`, the activity change, negative = cytotoxicity is reported as inactive: 102% [at 23.5 µM]. In the case of `CN1C(=O)c2cc(NC(=O)c3ccc(Cl)cc3)ccc2OC[C@@H]2O[C@H](CC(=O)NCc3cccc(F)c3)CC[C@@H]21`, the activity change, negative = cytotoxicity is reported as inconclusive: -64.2%. In the case of `CN1C(=O)c2cc(NC(=O)c3cccc(F)c3)ccc2OC[C@H]2O[C@H](CC(=O)NC3CCC3)CC[C@H]21`, the activity change, negative = cytotoxicity is reported as inactive: 1.04%. For `COCC(=O)N1[C@@H](CO)[C@@H]2c3ccccc3N(C(=O)C3CC3)C[C@@H]21`, the activity change, negative = cytotoxicity was inconclusive: -48%. In the case of `CN1C(=O)c2cc(NC(=O)c3cccc(F)c3)ccc2OC[C@@H]2O[C@@H](CC(=O)NC3CCC3)CC[C@H]21`, the activity change, negative = cytotoxicity is reported as inconclusive: 54.4%. With `COCC(=O)N(C)C[C@H]1Oc2cc(C#Cc3cccnc3)ccc2S(=O)(=O)N([C@H](C)CO)C[C@H]1C` the activity change, negative = cytotoxicity was inconclusive: -42.5%. In the case of `CN1C(=O)c2cc(NC(=O)C3CC3)ccc2OC[C@@H]2O[C@H](CC(=O)NCCN3CCCC3)CC[C@H]21`, the activity change, negative = cytotoxicity is reported as inconclusive: -42.6%. With `COCC(=O)N(C)C[C@H]1Oc2cc(-c3ccc(C#N)cc3)ccc2S(=O)(=O)N([C@H](C)CO)C[C@H]1C` the activity change, negative = cytotoxicity was inactive: 113%. With `CN1C(=O)c2cc(NC(=O)c3cccs3)ccc2OC[C@H]2O[C@H](CC(=O)NCCN3CCCCC3)CC[C@H]21` the activity change, negative = cytotoxicity was inconclusive: -52.8%. With `O=C(CN1CCN(c2nc(-c3ccccc3)cs2)CC1)Nc1ccc2c(c1)OCO2` the activity change, negative = cytotoxicity was inactive: 59.5%.
